Measured values from PMC2253627.
Results are given in words; binding and its absence hold for the method and conditions named. For some assays here: In cells and extracts the contact can be indirect. Some results given as binding are weak or reduced against the parent protein; the word gives no strength. For some assays here: Where a sequence is shown, tags or fusion partners need not be part of it. One block for each molecule: values may come before it.

Chains of the proteins cited; added tags and fusions are not shown. Lines headed by an entry give the natural chain unless they say otherwise; changes in a name come on top. Residues count along the entry.
UniProt O88751: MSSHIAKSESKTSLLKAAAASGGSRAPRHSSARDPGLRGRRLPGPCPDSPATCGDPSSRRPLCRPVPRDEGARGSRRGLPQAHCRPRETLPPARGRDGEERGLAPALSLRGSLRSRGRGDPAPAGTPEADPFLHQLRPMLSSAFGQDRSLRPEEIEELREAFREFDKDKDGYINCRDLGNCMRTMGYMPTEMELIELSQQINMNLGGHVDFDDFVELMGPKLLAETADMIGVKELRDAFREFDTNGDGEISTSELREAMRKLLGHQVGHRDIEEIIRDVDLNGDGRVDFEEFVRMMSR
GST fusion protein containing the C-terminal half (aa 137-298) of Caldendrin: residues 137-298 of O88751

Experiments:
[1] = biological target: T1, Jacob (endogenous, rat brain) (rat (endogenous in rat brain)) (UniProt Q9EPI6); assay: co-IP; rat brain extract, rabbit anti-Jacob on protein A sepharose, 5 mM EGTA in the precipitation buffer
T1 sequence: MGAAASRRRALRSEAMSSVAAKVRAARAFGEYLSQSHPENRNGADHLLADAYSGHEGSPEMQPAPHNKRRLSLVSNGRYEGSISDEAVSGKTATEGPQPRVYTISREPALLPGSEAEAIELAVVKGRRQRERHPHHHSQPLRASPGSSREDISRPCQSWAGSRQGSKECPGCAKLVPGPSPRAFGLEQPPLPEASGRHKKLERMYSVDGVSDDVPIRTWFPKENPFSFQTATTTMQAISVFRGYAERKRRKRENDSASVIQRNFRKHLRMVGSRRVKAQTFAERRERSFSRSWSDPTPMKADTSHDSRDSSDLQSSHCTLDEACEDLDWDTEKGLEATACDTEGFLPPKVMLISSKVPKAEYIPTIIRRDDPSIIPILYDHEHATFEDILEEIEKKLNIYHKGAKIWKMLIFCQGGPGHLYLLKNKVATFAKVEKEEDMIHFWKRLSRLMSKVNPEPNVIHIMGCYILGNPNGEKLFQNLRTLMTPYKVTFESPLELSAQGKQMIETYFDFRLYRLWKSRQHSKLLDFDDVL

[2] = biological target: T1, Jacob (endogenous, rat brain) (rat (endogenous in rat brain)); assay: co-IP; immunoaffinity columns: 15 mg protein of the 100,000 x g supernatant of a rat brain membrane extract loaded on an anti-Jacob or an anti-Caldendrin affinity column; eluates blotted
[3] = biological target: T1, Jacob (endogenous, rat brain) (rat (endogenous in rat brain)); assay: co-IP; rat brain extract, rabbit anti-Jacob on protein A sepharose, 100 μM Ca2+ in the precipitation buffer
[4] = biological target: T2, myc/his-tagged WT Jacob (rat) (UniProt Q9EPI6); assay: pull-down; competition: equimolar recombinant Caldendrin added to the GST-Importin-α1 pull-down of myc/his-tagged WT Jacob, 2 mM Ca2+; only the binder purified
T2 sequence: T1 sequence

[5] = biological target: Caldendrin (entire open reading frame, yeast two-hybrid bait in pAS2-1) (UniProt O88751); assay: two-hybrid; yeast; Caldendrin bait in pAS2-1, rat brain cDNA library in pACT2; deletion and point mutation constructs cotransformed; β-galactosidase colony lift assay scored by time to blue colonies (1 h, 3 h, 6 h)
[6] = biological target: GST fusion protein containing the C-terminal half (aa 137-298) of Caldendrin (UniProt O88751); assay: pull-down; Triton X-100-extracted P2 fraction incubated with glutathione sepharose loaded with GST-Caldendrin (aa 137-298) at 100 μM Ca2+ in the presence or absence of 40 μg recombinant CaM; western blot with anti-JB150; only the target purified
[7] = biological target: GST fusion protein containing the C-terminal half (aa 137-298) of Caldendrin (UniProt O88751); assay: pull-down; Triton X-100-extracted P2 fraction of rat brain incubated with glutathione sepharose loaded with GST-Caldendrin (aa 137-298) at different Ca2+ concentrations; 1 μM free Ca2+ required; only the target purified
[8] = biological target: Caldendrin (endogenous, rat brain) (rat (endogenous in rat brain)) (UniProt O88751); assay: co-IP; immunoaffinity columns: 15 mg protein of the 100,000 x g supernatant of a rat brain membrane extract loaded on an anti-Jacob or an anti-Caldendrin affinity column; eluates blotted

- binding [1]: no binding (condition: with 5 mM EGTA)
- binding [2]: binds
- binding [3]: binds
Molecule: Caldendrin (endogenous, rat brain) (from UniProt O88751 1-298)

- binding [4]: binds
Molecule: recombinant Caldendrin (competitor in the GST-Importin-α1 pull-down) (from UniProt O88751 1-298)

- binding [5]: binds
B1: Jacob (full length, yeast two-hybrid) (protein, UniProt Q9EPI6 1-532)
chain: T1 sequence

- binding [6]: binds
- binding [7]: binds
- binding [8]: binds
B2: Jacob (endogenous, rat brain) (protein, UniProt Q9EPI6 1-532)
chain: T1 sequence
